{"source": "PubChem BioAssay AID2685", "about": "(National Center for Advancing Translational Sciences (NCATS), 2010)", "note": "Among all 320,000 compounds or so, about 2,100 (0.66%) were called active. This list was built around the results that the source calls inconclusive (neither active nor inactive); the mix of calls is not that of the screen. The call rests on the fitted dose curve; in most records, active means well fitted inhibition curve with a large enough effect in the signal ratio, with a control signal flat (not every such curve was filed as active); inconclusive means small, poorly fitted or top-dose-only effect, or effect the other way, or a change in a side signal; inactive means flat fitted curve, though single readings scatter; the % refers to the signal ratio. Potencies beside an inconclusive call are fits to weak or partial responses and may not hold up. On the % scale 0 is the no-effect control and ±100 the full control effect; potency means the concentration at half of the fitted maximal effect."}
{"test": "qHTS Assay for Lipid Storage Modulators in Drosophila S3 Cells", "settings": "BODIPY lipid droplet fluorescence, 18-24 h, cells fed with added oleic acid; lipid storage change, negative = inhibition: at 46.1 µM (top of the series) unless noted", "how_it_was_run": "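Drosophila S3 cells loaded with oleic acid (400 uM, as added) and compounds at several concentrations; lipid droplets imaged by 488-nm laser-scanning cytometry, 500–530 nm intensity and object ratio to cell channel. Percent activity normalized to 20 uM Triacsin C.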"}
{"smiles": "Cc1ccc(CSCCNS(=O)(=O)c2ccc([N+](=O)[O-])cc2)cc1", "lipid storage change, negative = inhibition": "inactive"}
{"smiles": "COCCNCCCCOc1ccccc1-c1ccccc1", "Potency": "inconclusive: 0.0046 µM [rising, full curve, poor fit]"}
{"smiles": "Cn1c(=O)oc2ccc(C(=O)CSc3nnnn3-c3ccccc3)cc21", "lipid storage change, negative = inhibition": "inconclusive: 5.61%"}
{"smiles": "Cc1ccccc1OCC(=O)N=Nc1c(O)n(C)c2ccccc12", "lipid storage change, negative = inhibition": "inconclusive: 14.5%"}
{"smiles": "Cc1cc(C)cc(NC(=O)CCN2C(=O)c3ccccc3C2=O)c1", "lipid storage change, negative = inhibition": "inconclusive: 9.96%"}
{"smiles": "O=[N+]([O-])c1ccc(/C=N\\NS(=O)(=O)c2ccc(F)cc2)o1", "Potency": "inconclusive: 29.1 µM [rising, single point]"}
{"smiles": "c1ccc(C[C@H]2CNCCN2CC2(c3ccccc3)CC2)cc1", "Potency": "inconclusive: 18.4 µM [falling, single point]"}
{"smiles": "CNC(=O)c1ccccc1NC(=O)c1ccc(C)c(S(=O)(=O)N2CCCCC2)c1", "lipid storage change, negative = inhibition": "inconclusive: 72.1%"}
{"smiles": "CCCN(CCC)CCNS(=O)(=O)c1ccc2c(c1)CCN2C(=O)C1CCC1", "Potency": "inconclusive: 0.651 µM [falling, full curve, poor fit]"}
{"smiles": "NC(=O)c1ccc(NC(=O)CCCN2C(=O)NC3(CCCC3)C2=O)cc1", "Potency": "inconclusive: 29.1 µM [activator, single point]"}
{"smiles": "COc1ccc(-n2ncc(C(C)NS(=O)(=O)c3cccs3)c2C)cc1", "note": "(centres undefined)", "lipid storage change, negative = inhibition": "inconclusive: -58.9%"}
{"smiles": "CCOC(=O)C1(CCOc2ccccc2)CCN(Cc2ccc(CO)o2)CC1", "lipid storage change, negative = inhibition": "inconclusive: -14.9%"}
{"smiles": "O=C(NN1CCOCC1)c1ccc(Cl)c(Cl)c1", "Potency": "inconclusive: 25.9 µM [falling, single point]"}
{"smiles": "O=C(O)CCN1C(=O)/C(=C2\\C(=O)N(Cc3ccccc3Cl)c3ccccc32)SC1=S", "lipid storage change, negative = inhibition": "inconclusive: 9.5%"}
{"smiles": "O=C(COC(=O)c1ccco1)c1ccc(Cl)cc1", "lipid storage change, negative = inhibition": "inconclusive: -23.3%"}
{"smiles": "COc1ccc(/C=N/Nc2cc(C)nc(-n3nc(C)cc3C)n2)c(OC)c1", "lipid storage change, negative = inhibition": "inconclusive: -1.36%"}
{"smiles": "CCOCCCNC(=S)Nc1ccc2nc(N3CCN(CC)CC3)cc(C)c2c1", "Potency": "inconclusive: 0.651 µM [activator, single point]"}
{"smiles": "CCOc1cccc(-c2nnc(SCC(=O)Nc3ccc(OC)c(OC)c3)n2N)c1", "lipid storage change, negative = inhibition": "inconclusive: 17.5%"}
{"smiles": "O=C(c1cc(-c2ccc(F)cc2)on1)N1CCN(c2ccc(F)cc2)CC1", "Potency": "inconclusive: 29.1 µM [activator, single point]"}
{"smiles": "COc1ccc(C2CN=NC23CCCc2ccccc2C3=O)cc1", "note": "(centres undefined)", "lipid storage change, negative = inhibition": "inconclusive: -145%"}
{"smiles": "CC(=O)Nc1cc[n+](C(C)C(=O)c2ccc(Br)cc2)cc1", "note": "(centres undefined)", "lipid storage change, negative = inhibition": "inconclusive: 41.1%"}
{"smiles": "N#Cc1cccc(S(=O)(=O)NCCOc2ccccc2F)c1", "lipid storage change, negative = inhibition": "inconclusive: 17.5%"}
{"smiles": "COc1ccc(C(=O)c2cc3ccc(O)cc3oc2=O)cc1", "Potency": "inconclusive: 0.13 µM [falling, full curve, poor fit]"}
{"smiles": "O=S(=O)(c1ccccc1)N1CN(Cc2ccc(F)cc2)c2nc3ccccc3nc21", "Potency": "inconclusive: 4.11 µM [activator, full curve, poor fit]"}
{"smiles": "O=C(O)/C(=C\\c1c(C(=O)O)[nH]c2cc(Cl)cc(Cl)c12)c1ccccc1", "Potency": "inconclusive: 18.4 µM [falling, partial curve, poor fit]"}
{"smiles": "CC(C)C[C@H]1CN=C(N(C)C)N1CC1CCCC1", "lipid storage change, negative = inhibition": "inconclusive: 7.81%"}
{"smiles": "CC[N+]1=C(C)C(C)(C)c2cc(C)ccc21", "Potency": "active: 0.231 µM"}
{"smiles": "CC(=O)OC1COC(n2ccc3cc([N+](=O)[O-])ccc32)C(OC(C)=O)C1OC(C)=O", "note": "(centres undefined)", "lipid storage change, negative = inhibition": "inconclusive: 5.14%"}
{"smiles": "CCCC(=O)Nc1sc(C)c(-c2ccc(C(C)CC)cc2)c1C#N", "note": "(centres undefined)", "lipid storage change, negative = inhibition": "inconclusive: 15.1%"}
{"smiles": "O=c1[nH]cnc2sc3c(c12)CCC3", "lipid storage change, negative = inhibition": "inactive"}
{"smiles": "O=[N+]([O-])c1cccc(-n2nncc2-c2ccccc2)c1", "lipid storage change, negative = inhibition": "inconclusive: -42.9%"}
{"smiles": "CCOC(=O)C(=Cc1ccccc1OC)C(=O)OCC", "lipid storage change, negative = inhibition": "inconclusive: -21.8%"}
{"smiles": "CSc1c(CC(=O)NCCCO)n(Cc2ccccc2)c2ccccc12", "lipid storage change, negative = inhibition": "inactive"}
{"smiles": "CN1C(=O)C(CC(=O)Nc2ccc(F)cc2)N(NC(=O)c2cccc(F)c2)C1=S", "note": "(centres undefined)", "Potency": "inconclusive: 3.26 µM [falling, full curve]"}
{"smiles": "O=C(OCc1nc2ccc(Cl)cc2n1CCO)c1ccccc1C(=O)c1ccccc1", "lipid storage change, negative = inhibition": "inconclusive: 17.9%"}
{"smiles": "COC(=O)C(NC(=O)CCC(=O)NC(C(=O)OC)c1ccccc1)c1ccccc1", "note": "(centres undefined)", "Potency": "inconclusive: 20.6 µM [activator, partial curve]"}
{"smiles": "O=C(Nc1ccc(N2CCN(C(=O)c3ccccc3)CC2)cc1)c1cccs1", "lipid storage change, negative = inhibition": "inconclusive: -23.9%"}
{"smiles": "CC(C)(C)c1cc(C(=O)NCc2cc(F)cc3c2OCOC3)n(Cc2ccccc2)n1", "lipid storage change, negative = inhibition": "inconclusive: 11.1%"}
{"smiles": "CC1CCCCN1Cc1nc2c(c(=O)n(C)c(=O)n2C)n1Cc1c(F)cccc1Cl", "note": "(centres undefined)", "lipid storage change, negative = inhibition": "inconclusive: 6.67%"}
{"smiles": "CCCCC(=O)Nc1ccc(C(=O)N2CCC(C(=O)OCC)CC2)cc1", "lipid storage change, negative = inhibition": "inconclusive: 0.133%"}
{"smiles": "CCNc1nc(NC(C)CC)nc(Oc2ccc(=O)[nH]n2)n1", "note": "(centres undefined)", "lipid storage change, negative = inhibition": "inconclusive: 127%"}
{"smiles": "CCOC(=O)C1CCCN(S(=O)(=O)c2ccc(OC)cc2)C1", "note": "(centres undefined)", "Potency": "inconclusive: 0.231 µM [falling, full curve, poor fit]"}
{"smiles": "Cc1cc(C)cc(NC(=O)CN2CCC(NC(=O)Cc3ccccc3)CC2)c1", "lipid storage change, negative = inhibition": "inconclusive: 24.4%"}
{"smiles": "Cc1ccccc1-c1nc(C(=O)NCC2CCCO2)cc2c1[nH]c1ccccc12", "note": "(centres undefined)", "Potency": "inconclusive: 29.1 µM [falling, single point]"}
{"smiles": "COc1ccc(S(=O)(=O)Nc2cccc(SC)c2)cc1C(=O)N1CCOCC1", "lipid storage change, negative = inhibition": "inconclusive: 13.4%"}
{"smiles": "COc1cccc2c(=O)c(C(=O)O)c[nH]c12", "Potency": "inconclusive: 16.4 µM [falling, single point]"}
{"smiles": "Cc1nc(-c2c(C(F)(F)F)noc2-c2ccc(O)cc2O)cs1", "lipid storage change, negative = inhibition": "inconclusive: -29.1%"}
{"smiles": "COc1ccc(Cc2nc3ccc(C(=O)NCc4cc(C)no4)cc3o2)cc1OC", "lipid storage change, negative = inhibition": "inactive"}
{"smiles": "Cc1ccccc1CSc1nncn1N", "lipid storage change, negative = inhibition": "inconclusive: 19%"}
{"smiles": "CCC(C)Oc1nc2c(c(=O)n(C)c(=O)n2C)n1C", "note": "(centres undefined)", "lipid storage change, negative = inhibition": "inactive"}
{"smiles": "Cc1cc(NC(=O)CCC(=O)N(CC(=O)NCC2CCCO2)c2ccc(C)c(C)c2)no1", "note": "(centres undefined)", "Potency": "active: 1.03 µM"}
{"smiles": "CCC1(C)Cc2c(c(=O)n(-c3ccccc3)c3ncnc(N)c23)CO1", "note": "(centres undefined)", "Potency": "inconclusive: 0.116 µM [falling, full curve, poor fit]"}
{"smiles": "N/C(=N\\OC(=O)Cc1cccs1)c1ccc(Cl)cc1", "lipid storage change, negative = inhibition": "inconclusive: 25.9%"}
{"smiles": "COc1cc(/C=C/C(=O)OCC(=O)NC(=O)NC23CC4CC(CC(C4)C2)C3)ccc1OCC#N", "Potency": "inconclusive: 4.11 µM [rising, full curve]"}
{"smiles": "CCOc1ccccc1C(=O)NC1CCNCC1", "Potency": "inconclusive: 9.2 µM [activator, partial curve]"}
{"smiles": "CC1CCCC(NC(=O)COC(=O)CCC2CCCC2)C1C", "note": "(centres undefined)", "lipid storage change, negative = inhibition": "inconclusive: -187%"}
{"smiles": "CCN(CC)c1ccc(C(=O)OCC(=O)Nc2cc3oc4ccccc4c3cc2OC)cc1", "lipid storage change, negative = inhibition": "inactive"}
{"smiles": "CC(OC(=O)COc1ccc(C#N)cc1)C(=O)Nc1ccc(Cl)cn1", "note": "(centres undefined)", "lipid storage change, negative = inhibition": "inconclusive"}
{"smiles": "Cc1cccc(C2NS(=O)(=O)N=C2N)c1", "note": "(centres undefined)", "lipid storage change, negative = inhibition": "inconclusive: -2.45%"}
{"smiles": "O=[N+]([O-])c1ccc(COc2ccccc2/C=N/O)cc1", "lipid storage change, negative = inhibition": "inconclusive: 18.8%"}
{"smiles": "CC(C)(C)NC(=S)NCc1ccco1", "lipid storage change, negative = inhibition": "inconclusive: -27.2%"}
{"smiles": "C/C(=N\\NC(=O)c1ccc(CSc2cccc3cccnc23)cc1)C1CCCCC1", "lipid storage change, negative = inhibition": "inconclusive: 24.4%"}
{"smiles": "O=C(NNC(=S)NCc1ccccc1)c1ccc(OC(F)F)cc1", "Potency": "inconclusive: 3.26 µM [activator, partial curve]"}
{"smiles": "Cc1cc(C)c(NC(=O)CNC(=O)CNC(=O)C2CCCCC2)c(C)c1", "lipid storage change, negative = inhibition": "inconclusive: 13.7%"}
{"smiles": "O=C(CCNS(=O)(=O)c1ccccc1C(F)(F)F)NCCCc1ccccc1", "lipid storage change, negative = inhibition": "inconclusive: -23.4%"}
{"smiles": "Cc1ccc(-c2nn(-c3ccccc3)cc2NC(=O)c2ccccc2)cc1", "lipid storage change, negative = inhibition": "inconclusive: 41.5%"}
{"smiles": "COc1ccc(CNC(=O)CCN2C(=O)c3ccccc3S2(=O)=O)cc1", "lipid storage change, negative = inhibition": "inconclusive: -27.9%"}
{"smiles": "CCOc1ccc(N2C(=O)/C(=C/c3ccccc3OCC(=O)OC)N(CC(=O)OC)C2=S)cc1", "Potency": "inconclusive: 23.1 µM [activator, single point]"}
{"smiles": "Cc1ccc(C)c(Cn2nc(-c3ccccc3)ccc2=O)c1", "lipid storage change, negative = inhibition": "inconclusive: -28.1%"}
{"smiles": "Cc1c(C(=O)NNC(=O)c2csc(N3CCOCC3)n2)oc2ccccc12", "Potency": "inconclusive: 29.1 µM [activator, single point]"}
{"smiles": "Cc1cc(C(=O)NC2CCCC(C)C2C)c2ccccc2n1", "note": "(centres undefined)", "Potency": "inconclusive: 10.3 µM [activator, single point]"}
{"smiles": "COc1cc(C(=O)OCc2cccc(S(=O)(=O)N3CCOCC3)c2)ccc1OCC(C)C", "lipid storage change, negative = inhibition": "inconclusive: -64.5%"}
{"smiles": "Cc1ccc(/C=C/C2=NN(C)C(=O)CC2)cc1", "lipid storage change, negative = inhibition": "inconclusive: 10.4%"}
{"smiles": "COc1ccccc1NC(=O)CSc1nnc(CC(=O)Nc2ccccc2C)n1C", "lipid storage change, negative = inhibition": "inconclusive: -12.4%"}
{"smiles": "CCOc1ccc2nc(SCC(=O)Nc3ccc4c(c3)OCO4)sc2c1", "lipid storage change, negative = inhibition": "inconclusive: 30.5%"}
{"smiles": "O=C(c1ccco1)N1CCN(Cc2ccc(F)cc2Cl)CC1", "lipid storage change, negative = inhibition": "inconclusive: -17.6%"}
{"smiles": "Cc1ccccc1Cn1cc(NS(=O)(=O)c2cn(C)nc2C)cn1", "Potency": "inconclusive: 23.1 µM [activator, partial curve]"}
{"smiles": "CN(c1ccccc1)S(=O)(=O)c1cc(C(=O)OCC(=O)N2CCN(C(=O)c3ccco3)CC2)ccc1Cl", "lipid storage change, negative = inhibition": "inconclusive: -91.3%"}
{"smiles": "Cc1nc2sc(C(c3ccc(Cl)cc3)N3CCN(C(=O)c4ccco4)CC3)c(O)n2n1", "note": "(centres undefined)", "lipid storage change, negative = inhibition": "inconclusive: 4.48%"}
